Results are given in words; binding and its absence hold for the method and conditions named.
Target: full-length Plasmodium vivax Sub1 (PvS1FL), recombinant, autocleaved at Asp202 (P. vivax) (UniProt E6Y8B9)
Test: AUC; sedimentation equilibrium, pH 8 (50 mM Tris pH 8, 150 mM NaCl, 10 mM CaCl2), 20°C, 2, 5 and 10 µM protein, 9,000, 13,000 and 16,000 rpm, single-species model; both purified

B1: full-length Plasmodium vivax Sub1 (PvS1FL), recombinant, autocleaved at Asp202 (enzyme)
chain 1: GDILPNEGKKEKDDVHKIISELRFLQKVETILESSNMSVSDVEADANAYNPDRDAPKEELQKLQDQQETPSKQPNNLRNSPQKRAEKKESPGKNKKSLRLIVSENHATSPSFFEESLLQEDVVSFIQSKGKLSNLKNLKSMIIDLNSDMTDEELAEYISLLERKGALIESDKLVGAD
chain 2: DVSLASVKDAVRRGESSVNWGKLRSTMLEVPSGESPPSHAASSGSPFDDDDDLLSEAALHREEAHLAGSKTTKGYKFNDEYRNLQWGLDLARLDETQDLINANRVSVTKICVIDSGIDYNHPDLRNNIDVNVKELHGRKGVDDDSNGVVDDVYGANFVNNSGDPMDDNYHGTHVSGIISAVGNNGIGIVGVDGHSKLVICKALDQHKLGRLGDMFKCIDYCISRQAHMINGSFSFDEYSNIFNASVEHLRSLGILFFVSASNCAHDKLSKPDIAKCDLAVNHRYPPILSKTHNNVIAVANLKRDLDESYSLSVNSFYSNIYCQLAAPGTNIYSTTPMNNYRKLNGTSMASPHVAAIASIVRSINPNLTYLQIVEILRNAIVKLPSLTERVSWGGYVDILRAVNLAIDSKAAPYIKSHSWFRWKQGSRR
notes: Prodomain of P. vivax Sub1 up to the primary maturation site Asp202; Catalytic domain of P. vivax Sub1, from the residue after the primary maturation site Asp202 to the C-terminus
Q: B1 was tested. Which binding did it give?
A: The binding was “no binding (condition: at pH 8 (2, 5 and 10 µM))”.

From PMC10936178 (mBio, 2024)
